These results are taken from US20250115663A1.

Sequences of proteins named here, by UniProt entry; tags and fusion partners are left off. A change or cut given only in a name is not applied to a line headed by its entry. A line that says so, or that is headed by a name, gives the form on record, which may keep a tag or linker.
cynomolgus macaque CD40 on PBMC (G7PG38, form named): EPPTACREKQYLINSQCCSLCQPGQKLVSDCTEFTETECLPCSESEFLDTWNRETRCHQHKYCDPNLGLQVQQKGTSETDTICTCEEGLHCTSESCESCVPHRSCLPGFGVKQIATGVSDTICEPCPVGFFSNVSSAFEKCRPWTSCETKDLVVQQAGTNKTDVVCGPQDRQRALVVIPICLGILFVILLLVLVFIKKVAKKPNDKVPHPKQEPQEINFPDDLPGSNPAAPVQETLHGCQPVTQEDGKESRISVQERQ

Experiment [1] concerns the target cynomolgus macaque CD40 on PBMC (cynomolgus macaque) (UniProt G7PG38). The experiment in a line: flow cytometry on cynomolgus macaque PBMC (CD20+ B cells).
The target is the same in experiment [2]. Briefly: flow cytometry on cynomolgus macaque PBMC, CD20+ B cells, detection anti-human IgG Fc-PE. For orientation: Flow cytometry measures light scatter and fluorescence of single cells or particles in a stream.

No constants are given. Whether binding was seen depends on the method and setting. Some binding calls cover weakened binding; strength is not graded here.

B1: anti-CD40 human monoclonal antibody 3B6 (antibody, human IgG2, V domains shown)
VH: EVQLLESGGGLVQPGGSLRLSCAASGFTFSSYAMSWVRQAPGKGLEWVSGITGTGGSTYYADSVKGRFTISRDNSKNTLYVQMNSLRAEDTAVYYCAKRAGGSFYYYYGMDVWGQGTTVTVSS
VL: DIVMTQSPLSLPVTPGEPASISCRSSQSLLHSTGYNYLDWYLQKPGQSPQLLIYLGSNRASGVPDRFNGSGSGTDFTLKISRVEAEDFGVYYCMQALQTPWTFGHGTKVEIK
As to B1, the binding result in experiment [1] and in experiment [2] was “binds” in each case.

B2: anti-CD40 human monoclonal antibody 3C3 (antibody, human IgG2, kappa, V domains shown)
VH: QVQLVESGGGVVQPGRSLRLSCAGSGFIFSRYGMYWVRQAPGKGLEWVAVIWYDGSYKYYADSVKGRFTISRDNSKNTLYLQMNSLRAEDTAVYYCARESPWYYFDYWGQGTLVTVSS
VL: DIQMTQSPSSLSASVGDRVTITCRASQGISNYLAWYQQKPGKVPKLLIYAASTLQSGVPSRFSGSGSGTDFTLTISSLQPEDVATYYCQKYKSAPFTFGPGTKVDIKR
On to B2, for which the binding entry in experiment [1] and in experiment [2] was “binds” in each case.

B3: anti-CD40 human monoclonal antibody 6H6 (antibody, human IgG2, V domains shown)
VH: QVQLVESGGGVVQPGRSLRFSCAASGFTLSSYGMHWVRQAPGKGLEWVAVIWDDGSNKYYADSVKGRFTISRDNSKNTLYLQMNSLRAEDTAVYYCARAGGSGRYYNYFDYWGQGTLVTVSS
VL: EIVMTQSPATLSVSPGERATLSCRASQSVRSNLAWYQQKPGQAPRLLIYGASTRATGIPARFSGSGSGTDFTLTISSLQSEDFAVYYCQQHNNWLTFGGGTKVEIK
On to B3, for which the binding result in experiment [1] and in experiment [2] was “binds” in each case.
